Data reported in patent publication EP0121013A1, “Oral compositions” (UNILEVER PLC, priority 1983, dated 1984).

Experiment: Blind comparative taste test with a panel of 3 assessors
Conditions: for taste compared with SnF2: blind test, three judges, equal molar concentrations

Which results are given for `N.N.[F-].[F-].[F-].[F-].[F-].[F-].[Sn]` [Sn(NH4)2F6, stannic ammonium fluoride]?
taste compared with Na2SnF6 (20 sec. rinse with 10 ml of test solution containing 1000 ppm F, blind, unanimous decision of three judges): significantly less metallic taste than Na2SnF6; taste compared with SnF2: significantly less metallic taste than SnF2; taste compared with SnF2 (listed as Sn(NH4)2g6): much less astringent and metallic tasting
